Data from US5134150A, “Inhibition of the 5-lipoxygenase pathway” (priority 1989, dated 1992).

Experiments:
[1] = test system: Infiltration of Polymorphonuclear Leukocytes into Sites of Carrageenan-Induced Inflammation; assay: Mouse carrageenan peritonitis (PMN infiltration); type: in vivo, mouse (male Balb/c)
Source text: (§1) In the following Examples where mice were used, they were male Balb/c mice (20-28 g), and where rats were used, they were male Lewis rats (180-210 g). All mice and rats were obtained from Charles River Breeding Laboratories, Kingston, N.Y. Within a single experiment, mice and rats were sex and age matched.
(§2) The compounds of Formula (I) were used either as the free base or in the appropriate salt form. Levamisole was used as the hydrochloride salt. The compounds were homogenized in 0.5% tragacanth. Compounds were administered by gavage at the indicated dose in a final volume of 10 ml/kg. Nordihydroguaiaretic acid (NDGA) was solubilized in dimethylacetamide and diluted with olive oil for subcutaneous administration.
Mice were pretreated with either the test compound or vehicle one hour before the intraperitoneal injection of a 1.0% carrageenan suspension in saline (0.2 ml/mouse). Mice were sacrificed by cervical dislocation two hours after injection, and 3.0 ml of phosphate buffered saline, without Ca^++ or Mg^++, was injected into the peritoneum. Following massage, a 2.0 ml aliquot of the lavage fluid was removed, and the total cell count determined on a Coulter counter and differential cell count determined by microscopic examination of Giesma-stained slides.

[2] = test system: Arachidonic Acid-Induced Inflammation of the Mouse Ear; assay: Arachidonic acid-induced mouse ear inflammation; type: in vivo, mouse (male Balb/c)
Source text: as §1, §2
Arachidonic acid in acetone ([…]) was applied to the inner surface of the left ear. The thickness of both ears was then measured with a dial micrometer one hour after treatment, and the data were expressed as the change in thickness (10^-3 cm) between treated and untreated ears.
Test compounds were given orally in 0.5% tragacanth at the times indicated in the text prior to the topical application of arachidonic acid.
Parenteral administration of compound was accomplished by subcutaneous injection of solution as indicated.

COc1ccc2cc([C@H](C)C(=O)O)ccc2c1 [Naproxen]
% Change (PMN) ([1]; 100 mg/kg, p.o., Table 3): -11%
PMN (Mean ± S.D.) ([1]; 100 mg/kg, p.o., Table 3): 10.28 ± 2.49 × 10^-5 /ml
PMN infiltration, result in words ([1]; carrageenan peritonitis, mice): did not impair inflammatory cell infiltration
% Change (ear thickness) ([2]; 100 mg/kg, p.o.): +3%
Increase in Ear Thickness at 1 Hour ([2]; 100 mg/kg, p.o.): 26.4 ± 2.6 × 10-3 cm
Mouse ear edema, result in words ([2]; mouse, in vivo): did not exhibit detectable anti-inflammatory activity
